PubChem BioAssay AID1259308, NCATS, 2017

Purpose: 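Genes whose loss raises luciferase production in HEK293 cells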 (primary screen)
System: human HEK293 embryonic kidney cells stably expressing firefly luciferase (HEK-CMV-Luc2-Hygro)
Knock-down reagent: single siRNA against human genes, 0.8 pmol siRNA per well
Timing: 72 h
Measurement: 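Reporter luminescence and viable-cell signal on separate replicate plates, given as percent of non-targeting control and median/MAD z-scores, plus per-cell luciferase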
Reading the numbers: total luciferase, z-score: higher = more reporter protein produced
Call rule: 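An siRNA counts as active if its total luciferase robust z-score exceeds 3; genes with two or more such siRNAs out of three were retested with fresh siRNAs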
Meaning of the calls: active = raised luciferase; inactive = no rise
The deposit covers about 59,000 reagents; below is a random part of them. Of all reagents, about 1,510 (2.6%) got an active call. 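Calls use total luciferase alone and ignore viability, so some active siRNAs may act by altering cell number.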 The numbers tell different reagents against one gene apart. Not all columns of the deposit are shown. Reagent sequences are not shown.

gene knocked down | siRNA no. | total luciferase, z-score | Outcome
MGST1 | 1 | 1.55 | inactive
MGST1 | 2 | 0.328 | inactive
MGST1 | 3 | 1.17 | inactive
LINC00330 | 1 | 0.52 | inactive
LINC00330 | 2 | -0.0985 | inactive
LINC00330 | 3 | -1.55 | inactive
CDC16 | 1 | -0.428 | inactive
CDC16 | 2 | -0.0543 | inactive
CDC16 | 3 | 2.22 | inactive
MUL1 | 1 | -0.421 | inactive
MUL1 | 2 | -1.32 | inactive
MUL1 | 3 | -0.206 | inactive
KRT32 | 1 | -1.88 | inactive
KRT32 | 2 | -1.25 | inactive
KRT32 | 3 | -0.915 | inactive
STX17 | 1 | -1.29 | inactive
STX17 | 2 | -1.23 | inactive
STX17 | 3 | -1.31 | inactive
TCEA2 | 1 | -0.508 | inactive
TCEA2 | 2 | -1.21 | inactive
TCEA2 | 3 | -0.63 | inactive
ZDHHC2 | 1 | 0.2 | inactive
ZDHHC2 | 2 | -0.865 | inactive
ZDHHC2 | 3 | -0.693 | inactive
SLC2A11 | 1 | 0.379 | inactive
SLC2A11 | 2 | -0.468 | inactive
SLC2A11 | 3 | 0.831 | inactive
PCSK7 | 1 | 0.281 | inactive
PCSK7 | 2 | 0.2 | inactive
PCSK7 | 3 | -0.424 | inactive
WSB2 | 1 | -1.55 | inactive
WSB2 | 2 | -0.48 | inactive
WSB2 | 3 | 2.29 | inactive
UCMA | 1 | -1.51 | inactive
UCMA | 2 | 2.26 | inactive
UCMA | 3 | 0.271 | inactive
SMYD5 | 1 | 0.492 | inactive
SMYD5 | 2 | 1.5 | inactive
SMYD5 | 3 | 0.407 | inactive
H1-9P | 1 | 0.319 | inactive
H1-9P | 2 | 2.13 | inactive
H1-9P | 3 | -0.116 | inactive
LOC645263 (retired record) | 1 | -0.941 | inactive
LOC645263 (retired record) | 2 | 0.138 | inactive
LOC645263 (retired record) | 3 | -2.87 | inactive
CBX3P2 | 1 | 0.544 | inactive
CBX3P2 | 2 | 2.92 | inactive
CBX3P2 | 3 | 2.12 | inactive
PXT1 | 1 | -0.688 | inactive
PXT1 | 2 | 1.52 | inactive
PXT1 | 3 | -2.44 | inactive
RPF2P1 | 1 | -0.404 | inactive
RPF2P1 | 2 | -1.65 | inactive
RPF2P1 | 3 | -1.59 | inactive
NAPSA | 1 | -1.07 | inactive
NAPSA | 2 | 2.16 | inactive
NAPSA | 3 | -2.18 | inactive
